Source: paper doi:10.1101/2024.06.25.600562
These are yes or no findings as the source states them, for the method shown. In cells and extracts the contact can be indirect. Some entries that bind do so weakly or less than the wild type.

Amino acid sequences for entries named in this document (tags omitted).
UniProt Q99708: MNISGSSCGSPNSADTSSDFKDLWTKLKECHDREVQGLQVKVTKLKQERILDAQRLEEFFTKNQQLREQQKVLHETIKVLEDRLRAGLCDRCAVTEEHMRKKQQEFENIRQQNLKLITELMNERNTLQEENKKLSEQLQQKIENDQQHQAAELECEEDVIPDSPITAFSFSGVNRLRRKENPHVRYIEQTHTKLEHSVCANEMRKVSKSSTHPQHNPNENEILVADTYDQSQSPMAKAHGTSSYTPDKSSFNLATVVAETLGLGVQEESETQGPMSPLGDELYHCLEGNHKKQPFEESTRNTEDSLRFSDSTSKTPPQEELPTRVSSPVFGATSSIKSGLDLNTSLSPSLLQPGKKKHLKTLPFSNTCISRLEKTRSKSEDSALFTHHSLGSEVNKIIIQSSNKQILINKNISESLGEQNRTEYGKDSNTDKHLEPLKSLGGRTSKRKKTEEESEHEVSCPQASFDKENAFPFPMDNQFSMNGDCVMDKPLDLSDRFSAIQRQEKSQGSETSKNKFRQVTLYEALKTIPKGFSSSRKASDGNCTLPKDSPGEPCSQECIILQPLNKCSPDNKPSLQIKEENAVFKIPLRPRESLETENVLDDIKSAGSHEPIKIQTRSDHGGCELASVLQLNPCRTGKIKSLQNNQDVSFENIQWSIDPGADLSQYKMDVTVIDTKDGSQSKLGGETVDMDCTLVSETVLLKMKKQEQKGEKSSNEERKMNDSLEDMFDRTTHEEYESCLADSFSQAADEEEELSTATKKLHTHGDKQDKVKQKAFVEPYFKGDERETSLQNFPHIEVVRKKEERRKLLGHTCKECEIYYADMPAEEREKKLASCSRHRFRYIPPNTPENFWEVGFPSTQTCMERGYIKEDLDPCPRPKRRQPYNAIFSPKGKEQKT
UniProt Q16539: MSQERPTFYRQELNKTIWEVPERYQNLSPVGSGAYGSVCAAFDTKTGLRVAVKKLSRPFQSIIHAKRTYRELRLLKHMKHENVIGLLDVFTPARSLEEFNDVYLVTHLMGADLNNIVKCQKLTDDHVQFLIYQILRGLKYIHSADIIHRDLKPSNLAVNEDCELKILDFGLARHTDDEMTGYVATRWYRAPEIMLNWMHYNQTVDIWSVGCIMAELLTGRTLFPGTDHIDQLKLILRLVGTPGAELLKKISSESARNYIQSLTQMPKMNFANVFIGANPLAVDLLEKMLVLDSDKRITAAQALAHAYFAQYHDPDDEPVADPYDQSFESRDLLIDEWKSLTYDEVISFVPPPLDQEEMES

Molecular target: endogenous CtIP (human (endogenous in HEK293T)) (UniProt Q99708)
Test: co-IP

binding: binds
Substance: Myc-p38α (from UniProt Q16539 1-360) (enzyme)
